Source: publication PMC8191807, “The fidelity of DNA replication, particularly on GC-rich templates, is reduced by defects of the Fe–S cluster in DNA polymerase δ” (Nucleic Acids Research, 2021)
These are yes or no findings as the source states them, for the method shown. Some results given as binding are weak or reduced against the parent protein; the word gives no strength. For some of these results: Where a sequence is shown, tags or fusion partners need not be part of it.

How the values were obtained:
[1] = biological target: T1, Pol3 fused to a LexA DNA-binding domain (LexABD-POL3, pBL322) (S. cerevisiae) (UniProt P15436); test: two-hybrid; LexA DNA-binding domain and GAL4 activation domain fusions, (lexAop)8-lacZ reporter, quantitative β-galactosidase assays in triplicate; wild-type strain L40 and its met18Δ derivative DKy440
T1 sequence: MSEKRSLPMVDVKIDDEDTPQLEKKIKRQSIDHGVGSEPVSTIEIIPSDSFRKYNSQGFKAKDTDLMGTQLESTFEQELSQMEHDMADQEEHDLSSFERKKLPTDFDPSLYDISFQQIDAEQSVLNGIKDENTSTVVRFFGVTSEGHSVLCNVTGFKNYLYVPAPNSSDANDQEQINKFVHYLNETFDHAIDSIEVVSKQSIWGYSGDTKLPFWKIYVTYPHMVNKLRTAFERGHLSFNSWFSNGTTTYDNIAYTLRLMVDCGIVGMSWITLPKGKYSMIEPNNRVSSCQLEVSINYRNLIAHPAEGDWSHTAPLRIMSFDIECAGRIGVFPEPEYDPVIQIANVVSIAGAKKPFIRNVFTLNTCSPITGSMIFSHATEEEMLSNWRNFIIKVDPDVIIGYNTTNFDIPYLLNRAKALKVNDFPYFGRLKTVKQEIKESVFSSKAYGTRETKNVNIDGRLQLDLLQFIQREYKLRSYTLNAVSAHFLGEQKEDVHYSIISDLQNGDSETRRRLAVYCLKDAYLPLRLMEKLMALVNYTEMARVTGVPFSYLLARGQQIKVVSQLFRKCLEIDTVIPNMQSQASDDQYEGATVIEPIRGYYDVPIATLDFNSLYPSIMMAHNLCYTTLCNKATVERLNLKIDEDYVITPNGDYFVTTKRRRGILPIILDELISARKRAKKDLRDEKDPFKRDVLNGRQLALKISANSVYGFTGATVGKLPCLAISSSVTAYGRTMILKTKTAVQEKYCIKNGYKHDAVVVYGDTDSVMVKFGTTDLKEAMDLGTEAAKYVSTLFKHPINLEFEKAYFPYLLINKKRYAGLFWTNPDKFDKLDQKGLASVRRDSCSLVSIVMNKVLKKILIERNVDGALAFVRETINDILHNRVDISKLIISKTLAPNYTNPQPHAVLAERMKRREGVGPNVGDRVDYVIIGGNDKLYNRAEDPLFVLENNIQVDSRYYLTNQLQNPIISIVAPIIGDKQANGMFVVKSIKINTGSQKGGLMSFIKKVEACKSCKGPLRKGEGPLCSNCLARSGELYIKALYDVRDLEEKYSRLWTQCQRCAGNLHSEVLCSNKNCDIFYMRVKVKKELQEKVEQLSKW

[2] = biological target: T2, Pol31 fused to a LexA DNA-binding domain (LexBD-POL31, pBL363) (S. cerevisiae) (UniProt P46957); test: as above
T2 sequence: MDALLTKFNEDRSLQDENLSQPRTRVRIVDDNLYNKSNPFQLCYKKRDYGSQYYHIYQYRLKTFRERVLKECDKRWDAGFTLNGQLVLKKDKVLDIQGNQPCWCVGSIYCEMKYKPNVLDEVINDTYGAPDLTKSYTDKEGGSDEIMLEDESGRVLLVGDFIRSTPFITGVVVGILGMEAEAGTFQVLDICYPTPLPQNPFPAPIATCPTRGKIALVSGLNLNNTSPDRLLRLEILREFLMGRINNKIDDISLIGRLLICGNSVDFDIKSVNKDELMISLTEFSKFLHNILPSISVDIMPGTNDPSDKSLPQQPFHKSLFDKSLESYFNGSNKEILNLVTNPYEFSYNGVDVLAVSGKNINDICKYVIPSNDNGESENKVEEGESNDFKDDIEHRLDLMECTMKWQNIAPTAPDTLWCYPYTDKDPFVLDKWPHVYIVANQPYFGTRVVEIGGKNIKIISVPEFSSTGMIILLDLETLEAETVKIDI

[3] = biological target: T3, Pol3p, catalytic subunit of DNA polymerase δ (overexpressed for Pol δ purification) (S. cerevisiae) (UniProt P15436); test: co-purification (glutathione Sepharose, MonoS FPLC), composition by gel electrophoresis; as a1, but overexpressed in and purified from the met18Δ derivative DKy501
T3 sequence: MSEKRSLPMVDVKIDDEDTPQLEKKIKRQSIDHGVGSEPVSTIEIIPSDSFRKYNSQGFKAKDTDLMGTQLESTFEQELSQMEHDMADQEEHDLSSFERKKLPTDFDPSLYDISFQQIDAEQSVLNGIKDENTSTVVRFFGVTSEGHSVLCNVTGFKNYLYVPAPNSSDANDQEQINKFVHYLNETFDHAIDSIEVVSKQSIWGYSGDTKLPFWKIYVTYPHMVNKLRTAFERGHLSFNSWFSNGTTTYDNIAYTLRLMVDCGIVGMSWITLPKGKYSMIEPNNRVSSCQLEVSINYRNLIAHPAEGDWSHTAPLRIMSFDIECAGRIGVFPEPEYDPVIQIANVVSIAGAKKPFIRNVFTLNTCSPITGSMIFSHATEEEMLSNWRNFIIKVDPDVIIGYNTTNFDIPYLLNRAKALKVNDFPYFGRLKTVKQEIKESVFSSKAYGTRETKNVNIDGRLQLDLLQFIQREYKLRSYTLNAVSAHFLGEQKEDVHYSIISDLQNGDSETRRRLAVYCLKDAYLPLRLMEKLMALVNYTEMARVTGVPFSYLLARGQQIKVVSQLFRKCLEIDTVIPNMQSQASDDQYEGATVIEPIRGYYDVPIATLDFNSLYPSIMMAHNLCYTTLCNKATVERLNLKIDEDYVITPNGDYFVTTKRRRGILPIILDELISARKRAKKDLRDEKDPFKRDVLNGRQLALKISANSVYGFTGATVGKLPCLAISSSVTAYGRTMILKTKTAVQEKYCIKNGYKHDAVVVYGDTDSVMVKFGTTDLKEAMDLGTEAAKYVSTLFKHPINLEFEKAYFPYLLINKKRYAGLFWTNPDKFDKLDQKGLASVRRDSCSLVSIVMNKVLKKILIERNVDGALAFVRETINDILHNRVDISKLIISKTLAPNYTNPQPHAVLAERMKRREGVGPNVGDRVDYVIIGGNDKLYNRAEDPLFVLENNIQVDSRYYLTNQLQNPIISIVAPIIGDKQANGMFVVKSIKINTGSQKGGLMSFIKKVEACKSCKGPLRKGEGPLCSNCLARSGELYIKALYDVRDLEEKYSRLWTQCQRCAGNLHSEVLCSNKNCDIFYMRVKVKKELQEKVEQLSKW

Row | Binder | binding [3] | also measured
1 | Pol31 fused to a GAL4-activation domain (GAL4AD-POL31, pBL364) (natural protein, S. cerevisiae, UniProt P46957 1-487, looked up, Pol31p, accessory subunit of DNA polymerase δ, Saccharomyces cerevisiae; also called Pol31^AD; source: yeast two-hybrid fusion (2μ vector pACT2, strain L40 or its met18Δ derivative DKy440)) MDALLTKFNEDRSLQDENLSQPRTRVRIVDDNLYNKSNPFQLCYKKRDYGSQYYHIYQYRLKTFRERVLKECDKRWDAGFTLNGQLVLKKDKVLDIQGNQPCWCVGSIYCEMKYKPNVLDEVINDTYGAPDLTKSYTDKEGGSDEIMLEDESGRVLLVGDFIRSTPFITGVVVGILGMEAEAGTFQVLDICYPTPLPQNPFPAPIATCPTRGKIALVSGLNLNNTSPDRLLRLEILREFLMGRINNKIDDISLIGRLLICGNSVDFDIKSVNKDELMISLTEFSKFLHNILPSISVDIMPGTNDPSDKSLPQQPFHKSLFDKSLESYFNGSNKEILNLVTNPYEFSYNGVDVLAVSGKNINDICKYVIPSNDNGESENKVEEGESNDFKDDIEHRLDLMECTMKWQNIAPTAPDTLWCYPYTDKDPFVLDKWPHVYIVANQPYFGTRVVEIGGKNIKIISVPEFSSTGMIILLDLETLEAETVKIDI | – | binding [1]: binds
2 | Pol3 fused to a GAL4-activation domain (GAL4AD-POL3, pBL323) (enzyme, UniProt P15436 1-1097) MSEKRSLPMVDVKIDDEDTPQLEKKIKRQSIDHGVGSEPVSTIEIIPSDSFRKYNSQGFKAKDTDLMGTQLESTFEQELSQMEHDMADQEEHDLSSFERKKLPTDFDPSLYDISFQQIDAEQSVLNGIKDENTSTVVRFFGVTSEGHSVLCNVTGFKNYLYVPAPNSSDANDQEQINKFVHYLNETFDHAIDSIEVVSKQSIWGYSGDTKLPFWKIYVTYPHMVNKLRTAFERGHLSFNSWFSNGTTTYDNIAYTLRLMVDCGIVGMSWITLPKGKYSMIEPNNRVSSCQLEVSINYRNLIAHPAEGDWSHTAPLRIMSFDIECAGRIGVFPEPEYDPVIQIANVVSIAGAKKPFIRNVFTLNTCSPITGSMIFSHATEEEMLSNWRNFIIKVDPDVIIGYNTTNFDIPYLLNRAKALKVNDFPYFGRLKTVKQEIKESVFSSKAYGTRETKNVNIDGRLQLDLLQFIQREYKLRSYTLNAVSAHFLGEQKEDVHYSIISDLQNGDSETRRRLAVYCLKDAYLPLRLMEKLMALVNYTEMARVTGVPFSYLLARGQQIKVVSQLFRKCLEIDTVIPNMQSQASDDQYEGATVIEPIRGYYDVPIATLDFNSLYPSIMMAHNLCYTTLCNKATVERLNLKIDEDYVITPNGDYFVTTKRRRGILPIILDELISARKRAKKDLRDEKDPFKRDVLNGRQLALKISANSVYGFTGATVGKLPCLAISSSVTAYGRTMILKTKTAVQEKYCIKNGYKHDAVVVYGDTDSVMVKFGTTDLKEAMDLGTEAAKYVSTLFKHPINLEFEKAYFPYLLINKKRYAGLFWTNPDKFDKLDQKGLASVRRDSCSLVSIVMNKVLKKILIERNVDGALAFVRETINDILHNRVDISKLIISKTLAPNYTNPQPHAVLAERMKRREGVGPNVGDRVDYVIIGGNDKLYNRAEDPLFVLENNIQVDSRYYLTNQLQNPIISIVAPIIGDKQANGMFVVKSIKINTGSQKGGLMSFIKKVEACKSCKGPLRKGEGPLCSNCLARSGELYIKALYDVRDLEEKYSRLWTQCQRCAGNLHSEVLCSNKNCDIFYMRVKVKKELQEKVEQLSKW | – | binding [2]: binds
3 | Pol31p, accessory subunit of DNA polymerase δ (overexpressed for Pol δ purification) (natural protein, S. cerevisiae, UniProt P46957 1-487, looked up, Pol31p, accessory subunit of DNA polymerase δ, Saccharomyces cerevisiae) MDALLTKFNEDRSLQDENLSQPRTRVRIVDDNLYNKSNPFQLCYKKRDYGSQYYHIYQYRLKTFRERVLKECDKRWDAGFTLNGQLVLKKDKVLDIQGNQPCWCVGSIYCEMKYKPNVLDEVINDTYGAPDLTKSYTDKEGGSDEIMLEDESGRVLLVGDFIRSTPFITGVVVGILGMEAEAGTFQVLDICYPTPLPQNPFPAPIATCPTRGKIALVSGLNLNNTSPDRLLRLEILREFLMGRINNKIDDISLIGRLLICGNSVDFDIKSVNKDELMISLTEFSKFLHNILPSISVDIMPGTNDPSDKSLPQQPFHKSLFDKSLESYFNGSNKEILNLVTNPYEFSYNGVDVLAVSGKNINDICKYVIPSNDNGESENKVEEGESNDFKDDIEHRLDLMECTMKWQNIAPTAPDTLWCYPYTDKDPFVLDKWPHVYIVANQPYFGTRVVEIGGKNIKIISVPEFSSTGMIILLDLETLEAETVKIDI | no binding (condition: purified from the met18Δ strain) | –
4 | Pol32p, accessory subunit of DNA polymerase δ (overexpressed for Pol δ purification) (natural protein, S. cerevisiae, UniProt P47110 1-350, looked up, Pol32p, accessory subunit of DNA polymerase δ, Saccharomyces cerevisiae) MDQKASYFINEKLFTEVKPVLFTDLIHHLKIGPSMAKKLMFDYYKQTTNAKYNCVVICCYKDQTIKIIHDLSNIPQQDSIIDCFIYAFNPMDSFIPYYDIIDQKDCLTIKNSYELKVSESSKIIERTKTLEEKSKPLVRPTARSKTTPEETTGRKSKSKDMGLRSTALLAKMKKDRDDKETSRQNELRKRKEENLQKINKQNPEREAQMKELNNLFVEDDLDTEEVNGGSKPNSPKETDSNDKDKNNDDLEDLLETTAEDSLMDVPKIQQTKPSETEHSKEPKSEEEPSSFIDEDGYIVTKRPATSTPPRKPSPVVKRALSSSKKQETPSSNKRLKKQGTLESFFKRKAK | no binding (condition: purified from the met18Δ strain) | –
